From the supplement of paper PMC10849652
The other results are listed elsewhere or left out.

The chains behind the UniProt entries cited, without tags or fusion partners. Where a name states a change or a piece, a line headed by the entry shows the natural chain unless it says otherwise.
UniProt P00915: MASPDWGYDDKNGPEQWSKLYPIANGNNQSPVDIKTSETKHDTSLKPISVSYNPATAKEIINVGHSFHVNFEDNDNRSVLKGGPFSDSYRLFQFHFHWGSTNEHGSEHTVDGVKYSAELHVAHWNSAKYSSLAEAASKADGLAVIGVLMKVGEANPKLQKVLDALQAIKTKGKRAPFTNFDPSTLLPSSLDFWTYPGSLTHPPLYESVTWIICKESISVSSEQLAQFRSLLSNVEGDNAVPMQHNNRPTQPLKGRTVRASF
UniProt Q9Y2G2: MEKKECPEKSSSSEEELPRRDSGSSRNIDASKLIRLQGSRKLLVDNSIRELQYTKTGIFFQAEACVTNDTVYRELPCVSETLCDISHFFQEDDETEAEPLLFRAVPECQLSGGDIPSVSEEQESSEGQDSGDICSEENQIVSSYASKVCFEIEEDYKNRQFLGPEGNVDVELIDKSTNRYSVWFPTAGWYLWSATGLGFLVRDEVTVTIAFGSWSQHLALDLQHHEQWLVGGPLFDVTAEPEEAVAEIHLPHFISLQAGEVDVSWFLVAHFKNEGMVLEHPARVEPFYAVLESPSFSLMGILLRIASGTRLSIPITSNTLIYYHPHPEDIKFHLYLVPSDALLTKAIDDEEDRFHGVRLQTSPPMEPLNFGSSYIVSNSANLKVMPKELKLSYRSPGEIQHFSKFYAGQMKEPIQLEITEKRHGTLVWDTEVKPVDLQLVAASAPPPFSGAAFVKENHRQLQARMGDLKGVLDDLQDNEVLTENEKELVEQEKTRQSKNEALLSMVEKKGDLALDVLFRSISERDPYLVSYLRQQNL
UniProt Q9BRD0: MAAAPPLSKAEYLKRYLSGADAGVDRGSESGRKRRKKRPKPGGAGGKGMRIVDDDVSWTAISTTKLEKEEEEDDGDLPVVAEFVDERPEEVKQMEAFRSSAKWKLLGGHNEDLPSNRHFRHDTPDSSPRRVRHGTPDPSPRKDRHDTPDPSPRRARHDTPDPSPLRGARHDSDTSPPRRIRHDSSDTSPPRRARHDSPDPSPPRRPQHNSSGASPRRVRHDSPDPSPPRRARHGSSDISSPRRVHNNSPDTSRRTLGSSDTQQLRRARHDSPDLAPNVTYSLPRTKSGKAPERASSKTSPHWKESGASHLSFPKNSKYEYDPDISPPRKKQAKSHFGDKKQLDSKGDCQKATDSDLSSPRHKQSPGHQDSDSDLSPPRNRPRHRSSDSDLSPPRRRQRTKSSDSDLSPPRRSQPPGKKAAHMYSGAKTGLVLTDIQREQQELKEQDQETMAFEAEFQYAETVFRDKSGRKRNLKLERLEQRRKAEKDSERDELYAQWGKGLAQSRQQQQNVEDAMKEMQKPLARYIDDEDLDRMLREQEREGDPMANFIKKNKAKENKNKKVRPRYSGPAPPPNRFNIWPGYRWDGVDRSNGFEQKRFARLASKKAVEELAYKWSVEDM
UniProt O43709: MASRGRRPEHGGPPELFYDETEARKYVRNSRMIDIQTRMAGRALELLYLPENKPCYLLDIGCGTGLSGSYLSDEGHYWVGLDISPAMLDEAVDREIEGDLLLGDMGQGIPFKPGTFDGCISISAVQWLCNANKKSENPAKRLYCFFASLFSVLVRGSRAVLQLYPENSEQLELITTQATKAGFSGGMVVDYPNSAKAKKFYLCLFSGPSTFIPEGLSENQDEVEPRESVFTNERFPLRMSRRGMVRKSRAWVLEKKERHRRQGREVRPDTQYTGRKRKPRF
UniProt Q07021: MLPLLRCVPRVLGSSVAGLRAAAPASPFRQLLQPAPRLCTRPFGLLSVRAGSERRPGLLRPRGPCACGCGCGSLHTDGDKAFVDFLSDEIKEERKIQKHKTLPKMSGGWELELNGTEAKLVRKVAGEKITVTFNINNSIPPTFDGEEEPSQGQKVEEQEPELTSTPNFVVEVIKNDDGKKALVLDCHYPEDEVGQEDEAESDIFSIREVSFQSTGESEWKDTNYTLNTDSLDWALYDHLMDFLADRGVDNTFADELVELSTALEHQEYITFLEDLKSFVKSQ
UniProt Q9BWL3: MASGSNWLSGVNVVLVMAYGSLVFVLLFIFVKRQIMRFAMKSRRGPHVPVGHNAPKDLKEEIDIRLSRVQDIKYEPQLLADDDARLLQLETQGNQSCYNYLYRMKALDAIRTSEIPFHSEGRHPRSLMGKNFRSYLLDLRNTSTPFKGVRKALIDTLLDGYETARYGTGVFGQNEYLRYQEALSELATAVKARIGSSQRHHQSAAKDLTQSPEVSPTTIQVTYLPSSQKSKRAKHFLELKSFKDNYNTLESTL
UniProt O43683: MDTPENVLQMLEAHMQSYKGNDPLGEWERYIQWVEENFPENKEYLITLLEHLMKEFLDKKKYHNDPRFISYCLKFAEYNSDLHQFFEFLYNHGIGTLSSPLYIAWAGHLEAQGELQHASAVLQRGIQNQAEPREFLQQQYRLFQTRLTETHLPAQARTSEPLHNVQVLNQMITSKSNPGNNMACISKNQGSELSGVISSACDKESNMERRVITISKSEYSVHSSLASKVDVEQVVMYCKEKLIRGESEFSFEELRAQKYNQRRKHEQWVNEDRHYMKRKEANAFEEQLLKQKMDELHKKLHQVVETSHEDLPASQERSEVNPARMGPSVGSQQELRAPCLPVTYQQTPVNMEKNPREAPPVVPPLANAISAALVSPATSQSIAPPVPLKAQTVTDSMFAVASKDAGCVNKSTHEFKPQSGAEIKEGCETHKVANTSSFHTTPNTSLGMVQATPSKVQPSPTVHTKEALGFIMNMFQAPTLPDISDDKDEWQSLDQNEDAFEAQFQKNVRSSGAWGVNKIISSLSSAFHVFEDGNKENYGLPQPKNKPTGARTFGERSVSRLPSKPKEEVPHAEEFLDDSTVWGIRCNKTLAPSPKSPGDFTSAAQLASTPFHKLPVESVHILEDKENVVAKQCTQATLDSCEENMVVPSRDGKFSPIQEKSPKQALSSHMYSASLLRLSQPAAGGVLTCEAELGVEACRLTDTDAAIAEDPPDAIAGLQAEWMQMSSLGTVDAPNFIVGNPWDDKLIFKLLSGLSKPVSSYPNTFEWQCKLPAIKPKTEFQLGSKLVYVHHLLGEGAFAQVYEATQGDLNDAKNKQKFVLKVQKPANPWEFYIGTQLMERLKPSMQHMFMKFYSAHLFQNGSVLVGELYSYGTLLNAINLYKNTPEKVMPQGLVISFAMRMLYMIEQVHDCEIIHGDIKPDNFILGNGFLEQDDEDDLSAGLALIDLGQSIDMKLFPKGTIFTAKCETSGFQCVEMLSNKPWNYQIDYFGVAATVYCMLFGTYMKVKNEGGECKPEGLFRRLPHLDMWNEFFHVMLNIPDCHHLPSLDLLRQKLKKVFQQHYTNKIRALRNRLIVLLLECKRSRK
UniProt Q9Y426: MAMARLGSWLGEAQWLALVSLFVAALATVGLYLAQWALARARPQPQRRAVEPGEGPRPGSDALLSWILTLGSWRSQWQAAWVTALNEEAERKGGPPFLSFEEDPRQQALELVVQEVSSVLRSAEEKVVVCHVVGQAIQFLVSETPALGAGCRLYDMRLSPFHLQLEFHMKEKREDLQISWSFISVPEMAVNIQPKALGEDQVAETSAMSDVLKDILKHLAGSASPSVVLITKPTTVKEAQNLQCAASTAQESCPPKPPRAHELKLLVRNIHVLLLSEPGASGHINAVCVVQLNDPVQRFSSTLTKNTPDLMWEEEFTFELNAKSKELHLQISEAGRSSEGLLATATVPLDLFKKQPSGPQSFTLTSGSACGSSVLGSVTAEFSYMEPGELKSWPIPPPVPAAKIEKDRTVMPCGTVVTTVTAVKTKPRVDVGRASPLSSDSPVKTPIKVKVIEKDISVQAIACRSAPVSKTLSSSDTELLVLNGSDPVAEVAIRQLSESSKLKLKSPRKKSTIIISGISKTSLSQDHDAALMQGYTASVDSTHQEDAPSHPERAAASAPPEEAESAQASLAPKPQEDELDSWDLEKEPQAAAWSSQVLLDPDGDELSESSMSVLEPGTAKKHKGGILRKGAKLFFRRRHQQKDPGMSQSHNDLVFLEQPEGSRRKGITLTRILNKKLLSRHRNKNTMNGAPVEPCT
UniProt O43684, whole entry, looked up: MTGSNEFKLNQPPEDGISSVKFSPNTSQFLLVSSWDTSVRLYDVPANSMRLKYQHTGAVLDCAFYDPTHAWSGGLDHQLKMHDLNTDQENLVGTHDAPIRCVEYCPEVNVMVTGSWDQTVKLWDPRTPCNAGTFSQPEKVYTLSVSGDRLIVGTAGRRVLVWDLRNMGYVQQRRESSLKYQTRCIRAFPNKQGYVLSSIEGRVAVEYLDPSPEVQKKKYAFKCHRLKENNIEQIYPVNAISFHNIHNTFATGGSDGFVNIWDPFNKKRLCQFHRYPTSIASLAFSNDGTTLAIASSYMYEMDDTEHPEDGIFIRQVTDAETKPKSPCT
UniProt P49069: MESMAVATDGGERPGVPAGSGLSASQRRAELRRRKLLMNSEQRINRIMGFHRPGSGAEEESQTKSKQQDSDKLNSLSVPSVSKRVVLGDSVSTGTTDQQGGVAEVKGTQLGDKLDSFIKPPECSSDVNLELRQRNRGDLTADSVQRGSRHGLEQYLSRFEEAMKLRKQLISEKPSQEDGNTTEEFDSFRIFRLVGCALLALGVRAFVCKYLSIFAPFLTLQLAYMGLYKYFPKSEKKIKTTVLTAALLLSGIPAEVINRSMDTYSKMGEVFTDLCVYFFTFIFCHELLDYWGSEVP
UniProt Q9NX04: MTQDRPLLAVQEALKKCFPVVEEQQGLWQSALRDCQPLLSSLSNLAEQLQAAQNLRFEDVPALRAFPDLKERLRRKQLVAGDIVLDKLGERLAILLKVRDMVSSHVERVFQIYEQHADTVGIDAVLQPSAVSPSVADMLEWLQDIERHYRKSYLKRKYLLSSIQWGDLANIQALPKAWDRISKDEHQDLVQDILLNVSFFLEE
UniProt Q8WVQ1: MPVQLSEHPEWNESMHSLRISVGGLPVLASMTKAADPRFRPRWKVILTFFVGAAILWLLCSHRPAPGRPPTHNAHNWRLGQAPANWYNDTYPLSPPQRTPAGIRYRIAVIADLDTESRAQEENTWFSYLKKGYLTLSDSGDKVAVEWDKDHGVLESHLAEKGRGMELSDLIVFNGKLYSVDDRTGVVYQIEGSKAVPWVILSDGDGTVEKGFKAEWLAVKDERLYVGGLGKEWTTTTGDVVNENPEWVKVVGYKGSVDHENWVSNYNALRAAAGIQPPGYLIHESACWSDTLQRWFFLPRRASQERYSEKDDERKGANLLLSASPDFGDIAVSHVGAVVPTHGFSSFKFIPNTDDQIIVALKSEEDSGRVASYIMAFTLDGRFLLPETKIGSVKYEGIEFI
UniProt Q96B23: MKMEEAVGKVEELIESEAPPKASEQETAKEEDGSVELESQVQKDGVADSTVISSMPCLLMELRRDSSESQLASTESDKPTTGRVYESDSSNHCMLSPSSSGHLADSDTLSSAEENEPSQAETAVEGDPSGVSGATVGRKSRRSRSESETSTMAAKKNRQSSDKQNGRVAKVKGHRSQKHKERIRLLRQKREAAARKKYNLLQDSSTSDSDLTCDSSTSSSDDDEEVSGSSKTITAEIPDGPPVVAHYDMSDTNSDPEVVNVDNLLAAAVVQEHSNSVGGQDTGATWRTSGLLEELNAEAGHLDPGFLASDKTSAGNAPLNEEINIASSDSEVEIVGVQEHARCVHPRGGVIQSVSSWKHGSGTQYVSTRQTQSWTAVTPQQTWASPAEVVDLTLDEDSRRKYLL
UniProt O14523: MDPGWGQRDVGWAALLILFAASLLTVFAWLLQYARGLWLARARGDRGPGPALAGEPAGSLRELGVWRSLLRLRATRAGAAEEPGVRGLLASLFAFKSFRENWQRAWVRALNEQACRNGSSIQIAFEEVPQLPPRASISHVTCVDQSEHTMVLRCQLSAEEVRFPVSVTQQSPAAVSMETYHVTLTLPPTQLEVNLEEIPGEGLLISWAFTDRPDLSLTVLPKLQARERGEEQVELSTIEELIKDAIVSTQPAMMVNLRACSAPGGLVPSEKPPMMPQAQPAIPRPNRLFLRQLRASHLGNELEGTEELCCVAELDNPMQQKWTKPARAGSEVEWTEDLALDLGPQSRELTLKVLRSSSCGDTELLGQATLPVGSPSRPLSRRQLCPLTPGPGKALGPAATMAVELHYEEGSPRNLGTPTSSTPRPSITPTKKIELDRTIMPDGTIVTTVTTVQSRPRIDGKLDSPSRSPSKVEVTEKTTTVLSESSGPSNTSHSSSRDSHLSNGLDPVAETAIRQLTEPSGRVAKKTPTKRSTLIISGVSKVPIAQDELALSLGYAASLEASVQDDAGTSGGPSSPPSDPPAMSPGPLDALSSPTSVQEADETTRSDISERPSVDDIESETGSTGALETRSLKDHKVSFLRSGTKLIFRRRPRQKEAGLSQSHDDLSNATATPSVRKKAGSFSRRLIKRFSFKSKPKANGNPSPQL
UniProt Q10589, whole entry, looked up: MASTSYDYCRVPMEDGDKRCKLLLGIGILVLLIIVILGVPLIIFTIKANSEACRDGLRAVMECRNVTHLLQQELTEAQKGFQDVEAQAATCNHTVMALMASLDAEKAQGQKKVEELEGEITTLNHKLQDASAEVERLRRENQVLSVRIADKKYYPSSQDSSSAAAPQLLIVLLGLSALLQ

Tests used:
Experiment in all cases: log2 fold change, soluble protein after heating vs DMSO (PISA); higher = thermal stabilisation; K562 cells, 10 uM, 30 min; active = over 0.2 and 3.5 SD of the protein, either way, in both replicates (recomputed)
[1] = compound: CC1=C(C=C(C=C1)NC(=O)C2=CC(=CC=C2)C(C)(C)C#N)NC3=CC4=C(C=C3)N=CN(C4=O)C
In short: (§1)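 Soluble protein was defined as the supernatant after 21,000xg for 90 min. It came from K562 cells at 2×10^6 cells/mL given 10 μM compound for 30 min, heated in aliquots for 3 min across 48°C-58°C, pooled, and extracted in PBS with 0.5% NP-40 at 4°C, and was quantified by TMTpro 16plex LC-MS/MS with equalised channel sums. Thermal stability against control samples, from duplicates, is reported as log2 fold change.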

[2] = compound: CC1=C(C=C(C=C1)NC(=O)C2=CC(=CC=C2)N(C)C)NC(=O)C3=CC=C(C=C3)O
In short: as §1

[3] = compound: CC1=CC=C(C=C1)SC2=C3C=C(SC3=CN=C2)C(=O)N
In short: as §1

[4] = compound: CC1=NC(=CC=C1)C2=C(N=C(N2)C(C)(C)C)C3=CC4=NC=CN=C4C=C3
In short: as §1

Nexturastat A = compound: CCCCN(Cc1ccc(C(=O)NO)cc1)C(=O)Nc1ccccc1 [Nexturastat A]
In short: as §1

vemurafenib = compound: CCCS(=O)(=O)Nc1ccc(F)c(C(=O)c2c[nH]c3ncc(-c4ccc(Cl)cc4)cc23)c1F [vemurafenib]
In short: as §1

[5] = compound: CCCS(=O)(=O)Nc1ccc(F)c(C(=O)c2c[nH]c3ncc(Cl)cc23)c1F
In short: as §1

[6] = compound: CCCc1cc(C)[nH]c(=O)c1CNC(=O)c1cc(-c2ccnc(N3CCN(C)CC3)c2)cc2c1cnn2C(C)C
In short: as §1

givinostat = compound: CCN(CC)Cc1ccc2cc(COC(=O)Nc3ccc(C(=O)NO)cc3)ccc2c1 [givinostat]
In short: as §1

barasertib = compound: CCN(CCCOc1ccc2c(Nc3cc(CC(=O)Nc4cccc(F)c4)[nH]n3)ncnc2c1)CCOP(=O)(O)O [barasertib]
In short: as §1

Measured: log2 fold change

CAPZA1 (UniProt P52907)
inactive: [1] 0.002 | [2] -0.01 | [3] 0.061 | [4] 0.051 | Nexturastat A -0.01 | vemurafenib 0.002 | [5] 0.065 | [6] -0.022 | givinostat 0.029 | barasertib -0.035

CA1 (UniProt P00915)
inactive: [1] -0.028 | [2] -0.008 | [3] 0.03 | [4] 0.014 | Nexturastat A -0.051 | vemurafenib 0.048 | [5] 0.016 | [6] -0.039 | givinostat -0.021 | barasertib 0.008

BSG (UniProt P35613)
inactive: [1] -0.003 | [2] 0.018 | [3] 0.024 | [4] -0.004 | Nexturastat A -0.047 | vemurafenib -0.006 | [5] -0.004 | [6] -0.014 | givinostat -0.021 | barasertib -0.023

CARD8 isoform 5 (UniProt Q9Y2G2)
inactive: [1] -0.117 | [2] -0.216 | [3] -0.316 | [4] 0.003 | Nexturastat A 0.135 | vemurafenib 0.042 | [5] -0.67 | [6] 0.094 | givinostat -0.006 | barasertib 0.012

BUD13 (UniProt Q9BRD0)
inactive: [1] -0.027 | [2] 0.125 | [3] -0.089 | [4] -0.038 | Nexturastat A 0.227 | vemurafenib -0.112 | [5] -0.02 | [6] 0.101 | givinostat 0.025

C19orf53 (UniProt Q9UNZ5)
inactive: [1] 0.056 | [2] 0.016 | [3] -0.065 | [4] -0.196 | Nexturastat A 0.184 | vemurafenib -0.189 | [5] -0.044 | [6] 0.146 | givinostat 0.021 | barasertib -0.096

BUD23 isoform 3 (UniProt O43709)
inactive: [1] 0.041 | [2] 0.013 | [3] -0.067 | [4] -0.055 | Nexturastat A -0.005 | vemurafenib -0.034 | [5] -0.071 | [6] 0.038 | givinostat 0.015 | barasertib 0.002

BTF3L4 (UniProt Q96K17)
inactive: [1] -0.009 | [2] -0.001 | [3] 0.025 | [4] 0.095 | Nexturastat A -0.079 | vemurafenib 0.009 | [5] 0.024 | [6] 0.016 | givinostat 0.003 | barasertib -0.008

C6orf89 isoform 2 (UniProt Q6UWU4)
inactive: [1] -0.028 | [2] -0.005 | [3] 0.013 | [4] 0.035 | Nexturastat A -0.073 | vemurafenib 0.025 | [5] 0.008 | [6] -0.051 | givinostat -0.084 | barasertib -0.029

C12orf45 (UniProt Q8N5I9)
inactive: [1] -0.018 | [2] 0.046 | [3] -0.051 | [4] -0.001 | Nexturastat A -0.022 | vemurafenib -0.005 | [5] -0.01 | [6] -0.013 | givinostat -0.005 | barasertib 0.007

CAB39 (UniProt Q9Y376)
inactive: [1] -0.027 | [2] 0.007 | [3] 0.039 | [4] 0.028 | Nexturastat A -0.153 | vemurafenib -0.001 | [5] 0.009 | [6] -0.041 | givinostat 0.027 | barasertib 0.007

CAND1 (UniProt Q86VP6)
inactive: [1] -0.012 | [2] 0.02 | [3] 0.055 | [4] 0.035 | Nexturastat A -0.015 | vemurafenib -0.026 | [5] 0.033 | [6] -0.002 | givinostat -0.004 | barasertib 0.005

C1QBP (UniProt Q07021)
inactive: [1] 0.005 | [2] -0.017 | [3] -0.039 | [4] 0.015 | Nexturastat A -0.04 | vemurafenib 0.037 | [5] -0.006 | [6] 0.096 | givinostat -0.031 | barasertib 0.008

C1orf43 (UniProt Q9BWL3)
inactive: [1] -0.196

BUB1 (UniProt O43683)
inactive: [1] -0.049 | [2] 0.107 | [3] -0.05 | [4] -0.085 | Nexturastat A -0.059 | vemurafenib -0.075 | [5] -0.168 | [6] -0.168 | givinostat 0.066 | barasertib 0.035

C8orf82 (UniProt Q6P1X6)
inactive: [1] 0 | [2] 0.024 | [3] -0.009 | [4] 0.012 | Nexturastat A -0.021 | vemurafenib 0.002 | [5] -0.026 | [6] -0.083 | givinostat -0.099 | barasertib 0.006

CAMK2G isoform 6 (UniProt Q13555)
inactive: [1] 0.048 | [2] -0.055 | [3] 0.131 | [4] -0.011 | Nexturastat A 0.094 | vemurafenib -0.026 | [5] 0.11 | [6] 0.15 | givinostat 0.025 | barasertib 0.065

C1GALT1C1 (UniProt Q96EU7)
inactive: [1] -0.033 | [2] -0.04 | [3] -0.035 | [4] -0.034 | Nexturastat A 0.012 | vemurafenib 0.051 | [5] -0.005 | [6] 0.026 | givinostat 0.004 | barasertib 0.008

C2CD2 (UniProt Q9Y426)
inactive: [1] -0.094 | [2] 0.064 | [3] 0.094 | [4] -0.052 | Nexturastat A -0.103 | vemurafenib 0.18 | [5] 0 | [6] 0.112 | givinostat 0.048 | barasertib 0.007

BUB3 (UniProt O43684)
inactive: [1] -0.012 | [2] 0.019 | [3] 0 | [4] 0.013 | Nexturastat A -0.046 | vemurafenib -0.008 | [5] 0.034 | [6] -0.027 | givinostat -0.016 | barasertib -0.024

C8orf76 (UniProt Q96K31)
inactive: [1] -0.094 | [2] 0.014 | [3] -0.083 | [4] -0.013 | Nexturastat A -0.037 | vemurafenib 0.048 | [5] -0.091 | [6] 0.017 | givinostat -0.054 | barasertib 0.007

CAMLG (UniProt P49069)
inactive: [1] 0.009 | [2] -0.054 | [3] 0.01 | [4] 0.028 | Nexturastat A -0.022 | vemurafenib -0.013 | [5] 0.013 | [6] -0.024 | givinostat -0.024 | barasertib 0.002

C1orf109 (UniProt Q9NX04)
inactive: [1] 0.143 | [2] 0.116 | [3] -0.008 | [4] -0.01 | Nexturastat A 0.194 | vemurafenib -0.069 | [5] -0.035 | [6] 0.034 | givinostat 0.047 | barasertib 0.052

C12orf73 (UniProt Q69YU5)
inactive: [1] -0.066 | [2] -0.005 | [3] 0.065 | [4] 0.002 | Nexturastat A -0.266 | vemurafenib -0.001 | [5] -0.031 | [6] -0.034 | givinostat -0.02 | barasertib 0.033

C11orf98 (UniProt E9PRG8)
inactive: [1] -0.036 | [2] 0.018 | [3] -0.103 | [4] -0.104 | Nexturastat A 0.236 | vemurafenib -0.095 | [5] -0.121 | [6] 0.078 | givinostat 0.03 | barasertib -0.062

CANT1 (UniProt Q8WVQ1)
inactive: [1] -0.009 | [2] 0.021 | [3] 0.012 | [4] 0.014 | Nexturastat A -0.142 | vemurafenib -0.002 | [5] -0.005 | [6] -0.054 | givinostat -0.037 | barasertib 0.033

C18orf25 (UniProt Q96B23)
inactive: [1] -0.036 | [2] 0.046 | [3] -0.008 | [4] -0.003 | Nexturastat A 0.007 | vemurafenib -0.016 | [5] -0.042 | [6] -0.021 | givinostat -0.01 | barasertib 0.001

C2CD2L (UniProt O14523)
inactive: [1] -0.03 | [2] 0.083 | [3] -0.003 | [4] -0.019 | Nexturastat A 0.035 | vemurafenib -0.007 | [5] 0.036 | [6] -0.01 | givinostat -0.044 | barasertib 0.022

BST2 (UniProt Q10589)
inactive: [1] 0.059 | [2] 0.014 | [3] -0.003 | [4] -0.011 | Nexturastat A 0.023 | vemurafenib 0 | [5] -0.029 | [6] -0.095 | givinostat 0.053 | barasertib -0.097

C4A (UniProt P0C0L4)
inactive: [1] -0.154 | [2] 0.19 | [3] 0.111 | [4] 0.215 | Nexturastat A -0.008 | vemurafenib 0.148 | [5] -0.02 | [6] -0.287 | givinostat 0.001 | barasertib 0.021
